Values from PubChem BioAssay AID1259425 (University of Nebraska Medical Center, 2018)

Aim: 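Seek colon cancer weak points whose silencing resembles KSR1 loss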 (primary screen)
Cell system: HCT116 human colon cancer cells
Reagent: siRNA pool against human genes, 50 nM siRNA
Measured: 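After 50 nM siRNA pool, branched-DNA assay measures six marker transcripts per well, minus blank, normalised to the geometric mean of two housekeeping transcripts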
Scale: BNIP3L mRNA: higher = more BNIP3L transcript after knockdown
Shown is an unselected part of about 14,000 reagents tested. Not all columns of the deposit are shown. Not given: the time to read-out.

Depletion of MECR came out at: BNIP3L mRNA, set 1 = 0.0478.
COPZ1 gave BNIP3L mRNA, set 1 = 0.683.
Depletion of ZNF576 came out at: BNIP3L mRNA, set 1 = 0.0991.
ZNF234 scored BNIP3L mRNA, set 1 = 0.105.
Knock-down of ACTR10 came out at: BNIP3L mRNA, set 1 = 0.157.
Silencing of ALG8 resulted in: BNIP3L mRNA, set 1 = 0.126.
Against ZNF385D the deposit lists BNIP3L mRNA, set 1 = 0.329.
After knock-down of PAX1 the results were BNIP3L mRNA, set 1 = 0.193.

Entries listed so far whose gene name begins with A or a (2):
ACTR10 — BNIP3L mRNA, set 1 = 0.157
ALG8 — BNIP3L mRNA, set 1 = 0.126

Continued.
Depletion of HMHB1 came out at: BNIP3L mRNA, set 1 = 0.207.
After knock-down of XPA the results were BNIP3L mRNA, set 1 = 0.0809.
PBX2 scored BNIP3L mRNA, set 1 = 0.0923.
Depletion of GMCL2 gave: BNIP3L mRNA, set 1 = 0.0994.
